Measured values: article PMC5698439
No constants are given. Whether binding was seen depends on the method and setting. Binding seen in cells or lysates may run through a third protein. Some binding calls cover weakened binding; strength is not graded here. Where a sequence is shown, tags or fusion partners need not be part of it.

Chains of the proteins cited; added tags and fusions are not shown.
UniProt P18760: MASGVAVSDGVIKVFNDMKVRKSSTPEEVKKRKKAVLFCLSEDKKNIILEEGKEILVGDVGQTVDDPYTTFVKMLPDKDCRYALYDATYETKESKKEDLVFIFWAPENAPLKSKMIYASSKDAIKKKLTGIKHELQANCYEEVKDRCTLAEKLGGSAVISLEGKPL
UniProt P49023: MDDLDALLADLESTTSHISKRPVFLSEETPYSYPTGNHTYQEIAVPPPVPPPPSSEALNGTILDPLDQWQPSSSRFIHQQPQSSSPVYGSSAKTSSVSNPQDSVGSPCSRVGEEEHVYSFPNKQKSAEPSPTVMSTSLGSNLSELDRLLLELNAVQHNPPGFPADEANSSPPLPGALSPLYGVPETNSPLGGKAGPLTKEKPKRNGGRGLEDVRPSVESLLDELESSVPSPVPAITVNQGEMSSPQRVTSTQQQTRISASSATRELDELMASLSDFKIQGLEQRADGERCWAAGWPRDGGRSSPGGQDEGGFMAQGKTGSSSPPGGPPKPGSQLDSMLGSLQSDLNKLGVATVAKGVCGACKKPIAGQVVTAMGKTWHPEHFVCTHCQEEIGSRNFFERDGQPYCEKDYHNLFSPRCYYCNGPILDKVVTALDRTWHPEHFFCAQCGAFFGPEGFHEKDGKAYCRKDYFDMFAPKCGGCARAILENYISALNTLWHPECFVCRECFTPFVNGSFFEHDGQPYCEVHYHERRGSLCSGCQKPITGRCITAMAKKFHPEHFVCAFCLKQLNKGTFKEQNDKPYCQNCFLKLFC

Biological target: T1, V5-tagged CORO2B (mouse) (UniProt Q8BH44)
T1 sequence: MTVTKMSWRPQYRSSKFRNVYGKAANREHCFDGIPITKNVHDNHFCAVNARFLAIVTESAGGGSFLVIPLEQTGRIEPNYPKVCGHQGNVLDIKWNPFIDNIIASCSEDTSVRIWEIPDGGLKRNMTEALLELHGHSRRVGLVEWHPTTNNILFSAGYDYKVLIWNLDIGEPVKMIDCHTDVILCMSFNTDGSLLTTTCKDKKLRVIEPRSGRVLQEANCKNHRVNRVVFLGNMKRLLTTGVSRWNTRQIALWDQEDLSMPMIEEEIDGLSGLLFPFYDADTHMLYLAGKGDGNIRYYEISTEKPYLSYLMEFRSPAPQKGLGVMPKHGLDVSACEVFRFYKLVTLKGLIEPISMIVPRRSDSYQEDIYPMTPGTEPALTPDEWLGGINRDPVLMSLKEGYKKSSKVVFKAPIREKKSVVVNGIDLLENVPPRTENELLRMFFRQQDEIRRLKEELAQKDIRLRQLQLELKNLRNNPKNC
Assay: co-IP; HEK293T cells transfected with the indicated constructs, 24 h; lysis in 1% Triton X-100 buffer (50 mM NaCl, 50 mM NaF, 15 mM Na4P2O7, 1 mM EDTA, pH 7.4); anti-V5 antibody 12 h at 4 °C, protein G-Sepharose beads, 5 washes; western blot

| binding | Substance |
| --- | --- |
| binds | CFL1 (from UniProt P18760 1-166) |
| no binding | PAXILLIN (from UniProt P49023 1-591) |
